From PMC9181523

Target: T1, SrsR (YgfI) (Escherichia coli K-12 W3110 type-A) (UniProt P52044)
T1 sequence (looked up, limits assumed): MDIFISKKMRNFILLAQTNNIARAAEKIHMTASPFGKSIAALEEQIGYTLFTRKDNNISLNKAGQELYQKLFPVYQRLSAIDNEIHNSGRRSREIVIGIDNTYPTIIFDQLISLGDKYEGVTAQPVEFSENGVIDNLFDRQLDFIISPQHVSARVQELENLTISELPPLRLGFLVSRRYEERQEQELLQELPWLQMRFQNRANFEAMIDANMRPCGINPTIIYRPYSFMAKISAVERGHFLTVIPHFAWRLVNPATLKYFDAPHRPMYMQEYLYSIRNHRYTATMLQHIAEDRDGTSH
Experiment: EMSA
Conditions: several complexes; EMSA: gel shift buffer (composition not given), 0.1 pmol probe, 0-2 pmol SrsR, 37 C 30 min; recombinant protein; protein details: C-terminal His; probe letters rebuilt from the primers and the genome

“ATCATCCTGCGTTCCCCACTGGCGCTTTTTAGGGCTGAATACAACCGCATCAGGATGGCGAGTTAAAAAATCCTGTTCATCCGTCTGCGTGTCCGGTTGCGAAGCGTCCGGACGAGAAGGTTTTTTATCTGACGGATCATGTTTTGATTTTACTGACGGATCCCCGCCAGATTCTGACGGGTGAAAACCCGATTTTTTGCCAGATTTCGACGCATCAAATTTTGACGGGTCAGATTTTGATGCGTCAGATTTTGACGGGTCAGAGTCTGACAGTTGAGAAAATGCCGCTGCCTGAAGCTTCGCAACGTTAAGCTGATAAACATTCGACGCATTGCGGTT (double strand) [yfdO/yfdP gel shift probe]”: binds.

The exact form of at least one protein or probe is not confirmed. Tags and fusion partners may be left off the protein sequences shown.
